# From PMC12040169 (PLOS Biology, 2025)
# The other results are listed elsewhere or left out.
# System: T1, CTL2-GFP (C. trachomatis L2/434/Bu, GFP-expressing)
# T1 construct: L2/434/Bu, GFP-expressing
# Design: species or system HeLa; Intracellular C. trachomatis growth in HeLa cells, bulk GFP fluorescence relative to DMSO
# Settings: bulk GFP, single well; 28.5 h, 10 µM; inhibitor
row,Structure (SMILES),% of control remaining
1,O=C(COc1ccc2ccccc2c1)N1CCN(S(=O)(=O)c2ccccc2[N+](=O)[O-])CC1 [CBK264271],134.143%
2,COc1ccccc1CCCN1CCC2(C1)NCCc1c2[nH]c2ccccc12 (stereo not shown) [CBK040257],204.817%
3,COc1ccc2[nH]c3c(c2c1)CCN[C@]31CCN(CCOc2ccc(F)cc2)C1 [CBK089876T],134.787%
4,CCCOc1ccc(C(=O)N2CCN(c3ccccc3)CC2)cc1 [CBK304327],78.5691%
5,O=C(Cn1ccnc1)Nc1ccccc1Oc1ccc(F)cc1 [CBK281455],110.383%
6,CCCCn1c(SCC(O)COCc2ccc(OC)c(OC)c2)n[nH]c1=O (stereo not shown) [CBK296653],135.023%
7,O=C(Cc1csc(-c2ccc(Cl)cc2)n1)NCCN1CCCC1 [CBK107306],100%
8,O=S(=O)(Nc1nnc(C(F)(F)F)s1)c1ccc(Br)cc1 [CBK200047],123.076%
9,CCC1CCC2(CC1)NC(=O)N(CC(=O)Nc1nccs1)C2=O (stereo not shown) [CBK305936],100.954%
10,O=C(O)C1(Oc2ccc3ncccc3c2)CCN(Cc2ccoc2)CC1 [CBK307598],119.246%
11,OCCCNC(=S)NCCc1ccccc1 [CBK264869],120.796%
12,CN(C)C(=O)CN1C(=O)N2CCN=C2c2ccccc21 [CBK283961],115.906%
13,CCOC(=O)c1c(/N=C/c2cc(I)cc(I)c2O)sc2c1CCN(Cc1ccccc1)C2 [CBK262246],83.2427%
14,CCOC(=O)NC(Nc1nc2ccccc2s1)(C(F)(F)F)C(F)(F)F [CBK008913],87.2577%
15,Cc1c(C(=O)O)sc(S(=O)(=O)N2CCN(C(=O)Cc3ccccc3Cl)CC2)c1C(=O)O [CBK297137],129.347%
16,COc1ccc([C@@]23CCC(N)C[C@@H]2N(C)CC3)cc1OC (stereo partly shown) [CBK003576],112.807%
17,CCCNC(CC(=O)Nc1ccccc1)C(=O)O (stereo not shown) [CBK266819],134.681%
18,Cc1cc(C)cc(NC(=O)CC2Sc3ccccc3NC2=O)c1 (stereo not shown) [CBK266384],196.596%
19,O=C(O)COc1cccc2ccccc12 [CBK218704],129.1%
20,CCC1CCc2c(sc(NC(=O)C3C4CCC(C4=C(C)C)C3C(=O)O)c2C(=O)OC)C1 (stereo not shown) [CBK265424],111.746%
21,O=C(O)COc1ccc(-c2nnn(CC(=O)O)n2)cc1 [CBK267124],181.06%
22,c1ccc2c(c1)OCC(COc1ccnc(N3CCCN(CC4CCCCC4)CC3)n1)O2 (stereo not shown) [CBK083982],115.29%
23,Nc1ncc(-c2cccc(C(=O)O)c2)nc1N1CCOCC1 [CBK063415],160.634%
24,CCCC/C=C/c1cncc(NCc2cccc(Cl)c2)n1 [CBK065293],146.961%
25,CCn1c2cc(C)sc2c2cnn(CC(=O)OC)c(=O)c21 [CBK284186],115.458%
26,O=C(O)Cc1ccc(-n2c(S)nnc2-c2ccncc2)cc1 [CBK268860],172.785%
27,Cc1cc(C)n(-c2cccc(CN3CCC(CO)C3)c2)n1 (stereo not shown) [CBK282928],108.315%

row,Structure (SMILES),% of control remaining
1,O=C1CC(Nc2ccc(N3CCOCC3)cc2)C(=O)N1CCc1ccccc1 (stereo not shown) [CBK269339],66.0257%
2,Oc1cccc(/C=N/c2ccc(Cc3ccc(/N=C/c4cccc(O)c4)cc3)cc2)c1 [CBK261230],103.983%
3,O=C(Nc1cccc2ccccc12)O[C@@H]1CO[C@H]2[C@@H]1OC[C@@H]2NC(=O)c1cccs1 [CBK289468],96.8318%
4,Cc1cc2nc(NCC3CCCO3)c3ccccc3n2n1 (stereo not shown) [CBK305871],162.704%
5,CC(=O)NC(c1ccccn1)C1CCN(C(=O)C2CCCCC2)CC1 (stereo not shown) [CBK285049],131.607%
6,Cc1ccccc1CCNC(=O)c1cccn(CC(=O)N(C)C2CCCCC2)c1=O [CBK286028],87.8915%
7,CC(C)(C)C(=O)N1CC[C@H]2NC(=O)N(c3ccc(F)cc3)C(=O)[C@H]21 [CBK289328],124.177%
8,CCC(C)(C)N1CC(=O)N=C1NCCc1ccc(S(N)(=O)=O)cc1 [CBK007750],149.062%
9,COc1ccc(-c2cc(C(=O)OCc3ccccn3)c3ccccc3n2)cc1 [CBK296114],121.33%
10,O=S(=O)(c1cccc(C(F)(F)F)c1)n1ccc2c(CN3CCCC3)cccc21 [CBK116168T],89.4076%
11,CN(Cc1ccccc1)c1nc2ccccn2c(=O)c1/C=C1/SC(=S)N(CCc2ccccc2)C1=O [CBK263839],136.765%
12,CN(C)c1ncc(-c2ccc(F)cc2)c(C2CCCN2C(=O)c2nccc3ccccc23)n1 (stereo not shown) [CBK286086],108.814%
13,CS(=O)(=O)c1ccc(-c2ccc(COC3CCN(C(=O)CCCc4ccc(F)cc4)CC3)cn2)cc1 [CBK162229T],93.8837%
14,Cc1ccc(CN2CCCC3(C/C=C/COc4ccccc4C(=O)NCCNC3=O)C2)cn1 (stereo not shown) [CBK292022],128.984%
15,Cc1ccc(Cc2cnc(NC(=O)C3CCCO3)s2)cc1Cl (stereo not shown) [CBK305013],135.824%
16,COc1ccc(-c2cc(C(=O)Nc3ccc(O)cc3)cnc2-c2ccc(F)cc2)cc1 [CBK038026],143.778%
17,c1ccc(CNc2nc(-c3ccco3)cn3ccnc23)nc1 [CBK037482],95.7495%
18,COc1ccc(C(NC(=O)c2cc(C)oc2CN2CCCC2)c2ccccc2)cc1 (stereo not shown) [CBK285573],81.7067%
19,C=C(C)Cn1c(SC(C)C)nnc1-c1ccccc1OC [CBK200072],128.756%
20,CCCS(=O)(=O)NC1CC(C)(C)Cc2c1cnn2-c1ccc(F)cc1 (stereo not shown) [CBK306770],97.3908%
21,COc1cccc(CNc2nccnc2-c2ccoc2)c1OC [CBK036782],236.523%
22,O=C(CC1CC1)Nc1snnc1-c1ccc(Cl)cc1 [CBK153239],102.694%
23,O=C(O)CCc1nn2c3ccccc3nc2n(-c2ccccc2)c1=O [CBK267520],131.837%
24,CC(C)NC(=O)c1ccc(Cl)cc1 [CBK015665],112.631%
25,O=C(NCc1ccc(Cl)c(Cl)c1)N1CCN(Cc2ccccc2)CC1 [CBK155624],121.274%
26,COc1ccc(CCNC(=O)CSc2nc(N)c3c4c(sc3n2)CCCC4)cc1 [CBK095784],106.231%
27,O=C(Cc1ccccc1)N1C[C@@H]2CCCCN(CC3CC3)[C@@H]2C1 [CBK285497],108.647%

row,Structure (SMILES),% of control remaining
1,CCN(c1ccccc1)S(=O)(=O)c1ccc(C(=O)NC(C)c2ccc3c(c2)OCCO3)cc1 (stereo not shown) [CBK296945],124.028%
2,COc1ccccc1-c1coc2cc(OC(=O)c3c(C)oc4ccc(OC(C)=O)cc34)ccc2c1=O [CBK265191],112.957%
3,O=C1c2ccc3c4c(ccc(c24)C(=O)N1c1ccncc1)C(=O)N(c1ccncc1)C3=O [CBK261390],69.8724%
4,Cc1noc(C)c1NC(=O)c1nc2ccccc2[nH]1 [CBK200315],135.231%
5,Cn1ccnc1CN1C(=O)CO[C@H]2CN(Cc3ccc4c(c3)OCO4)C[C@H]21 [CBK289665],152.831%
6,NC(=O)CSc1ccccc1 [CBK010649],134.422%
7,CN1CCN(CCC(=O)N2CCN(C(=O)c3ccco3)CC2)CC1 [CBK144481],106.63%
8,O=C1N=C(NC2CCCCCC2)SC1CC(=O)N(Cc1ccccc1)c1ccccc1 (stereo not shown) [CBK067394],112.4%
9,COc1cc(CN2CCC(C(=O)c3ccc(F)cc3)CC2)cc(OC)c1OC [CBK149112],98.4641%
10,CCN1CCN(C(=O)c2nccnc2C(=O)O)CC1 [CBK286718],112.57%
11,Sc1nnc(-c2cccc(Br)c2)o1 [CBK288432],119.454%
12,CC(=O)Nc1ccc(OC(=O)CSc2nc(C)cc(-c3ccccc3)n2)cc1 [CBK268754],136.423%
13,CN(C)CCCN(Cc1ccco1)Cc1c[nH]nc1-c1cccs1 [CBK283198],101.093%
14,Cc1ccc(-c2ccccc2CC2(C(=O)Nc3ccc(C(N)=O)cc3)CCOCC2)c(C)c1 [CBK286422],139.795%
15,CCCn1nnn(-c2cc(OCCOCC)c(Cl)cc2Cl)c1=O [CBK026016],155.045%
16,O=S(=O)(c1ccc(N2CCNCC2)cc1)n1ccc2ccc(Br)cc21 [CBK034034C],24.7677%
17,COc1cc(-c2nc3ncccc3cc2NC(=O)C(C)C)cc(OC)c1OC [CBK073661],99.0939%
18,c1cncc(COc2cncc(N3CCCC3)n2)c1 [CBK115892],100%
19,Cc1cc(S(=O)(=O)NCc2ccccc2)ccc1OCC(=O)N1CCN(C)CC1 [CBK268274],118.059%
20,O=C1C=C(O)CC(CCc2ccc(F)cc2)(CCc2ccc(F)cc2)O1 [CBK008148],100.044%
21,O=C(Nc1ccc(N2CCCC2)c(F)c1)C1CC(=O)N(C2CC2)C1 (stereo not shown) [CBK281461],115.562%
22,CC(C)c1nc2c(n1C)CCN(Cc1cc(=O)n3ccccc3n1)C2 [CBK305061],135.536%
23,O=C(NCc1ccc(-c2nc3ncccc3o2)cc1)c1ccc(F)cc1 [CBK270182],120.533%
24,Cc1ncc(CNC(=O)C2CC2)c(-c2cn(C)c3ccccc23)n1 [CBK283366],118.452%
25,CN(C)CCN1C(=O)C(O)=C(C(=O)c2ccc(S(=O)(=O)N3CCOCC3)cc2)C1c1ccc(Br)cc1 (stereo not shown) [CBK264693],126.309%

# Look-ups from above.
# Value for Sc1nnc(-c2cccc(Br)c2)o1 [CBK288432] under % of control remaining: 119.454%
# Value for O=S(=O)(c1ccc(N2CCNCC2)cc1)n1ccc2ccc(Br)cc21 [CBK034034C] under % of control remaining: 24.7677%
# Value for CC(C)c1nc2c(n1C)CCN(Cc1cc(=O)n3ccccc3n1)C2 [CBK305061] under % of control remaining: 135.536%
# Value for CCN(c1ccccc1)S(=O)(=O)c1ccc(C(=O)NC(C)c2ccc3c(c2)OCCO3)cc1 (stereo not shown) [CBK296945] under % of control remaining: 124.028%
# Value for COc1cc(-c2nc3ncccc3cc2NC(=O)C(C)C)cc(OC)c1OC [CBK073661] under % of control remaining: 99.0939%
# Value for O=C1N=C(NC2CCCCCC2)SC1CC(=O)N(Cc1ccccc1)c1ccccc1 (stereo not shown) [CBK067394] under % of control remaining: 112.4%
